PubChem BioAssay AID504804 – Drosophila RNAi Screening Center – 2011

Test: 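Fly genes whose loss lessens doxorubicin-driven cell death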 (primary screen)
Cells: Drosophila Kc cells
Reagent: long dsRNA against Drosophila genes, 0.5 µg dsRNA per well
Duration: 96 h (48 h knock-down, then 48 h drug)
Challenge: doxorubicin 5 µg/ml for 48 h, added 48 h after dsRNA
Measurement: 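Luminescent ATP counts per replicate, not normalised, reflecting viable cells after 48 h dsRNA knock-down followed by 48 h of 5 µg/ml doxorubicin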
Direction: raw ATP luminescence: higher = more viable cells, protection from doxorubicin
Rule for the call: 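Active when both duplicate wells lie at least 2 SD above the plate mean and protection is confirmed by rescreening and independent dsRNAs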
In all, the deposit lists about 19,000 reagents; below is an unselected part of those with a known target gene and a result. In the full data, 47 (0.25%) were called active. 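Signals are raw, not normalised; exact z-scores behind calls not deposited; actives needed confirmation, so some wells reaching 2 SD are inactive.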 Unmarked entries are inactive. Names joined by + are all predicted targets of the reagent. No sequences are given here.

| predicted target | amplicon | SD above plate mean | raw ATP luminescence, replicate 1 | raw ATP luminescence, replicate 2 |
| --- | --- | --- | --- | --- |
| Fatp (retired record) (GeneID 44227) | DRSC03054 | – | 79703 | 81957 |
| Set8 (GeneID 41743) | DRSC15473 | – | 58500 | 27837 |
| CG31055 (GeneID 318574) | DRSC13832 | – | 1.80e5 | 2.03e5 |
| CG13458 (GeneID 39646) | DRSC10005 | at least 2 SD above plate mean | 46890 | 44130 |
| ldd (GeneID 318066) | DRSC20558 | – | 3.14e5 | 3.04e5 |
| ms(3)76Ba (GeneID 40109) | DRSC10091 | – | 79733 | 49870 |
| sicily (GeneID 32151) | DRSC19704 | – | 3.54e5 | 3.21e5 |
| PolE4 (GeneID 37560) | DRSC04105 | – | 32657 | 42873 |
| Prosalpha6 (GeneID 34359) | DRSC03401 | – | 34370 | 47723 |
| CG6638 (GeneID 38979) | DRSC10680 | – | 80470 | 84640 |
| TTLL1B (GeneID 326203) | DRSC08594 | – | 1.02e5 | 93723 |
| gogo (GeneID 40225) | DRSC10070 | – | 60740 | 54900 |
| gogo (GeneID 40225) | DRSC10071 | – | 63303 | 53947 |
| CG11927 (GeneID 33687) | DRSC00337 | – | 1.06e5 | 79633 |
| Rab14 (GeneID 34840) | DRSC03403 | – | 1.13e5 | 68630 |
| lectin-24Db (GeneID 53550) | DRSC00553 | – | 1.29e5 | 1.03e5 |
| CkIalpha (GeneID 32221) | DRSC20231 | – | 3.69e5 | 3.90e5 |
| CG5250 (GeneID 42308) | DRSC15752 | – | 48250 | 41010 |
| Sod3 (GeneID 36232) | DRSC07324 | – | 52260 | 44600 |
| tutl (GeneID 46015) | DRSC00441 | – | 32147 | 26690 |
| tutl (GeneID 46015) | DRSC00442 | – | 27100 | 29103 |
| tutl (GeneID 46015) | DRSC00443 | – | 27660 | 20140 |
| Npc2c (GeneID 41233) | DRSC15523 | – | 50140 | 46563 |
| O-fut1 (GeneID 36564) | DRSC06138 | – | 74747 | 63070 |
| CG10559 (GeneID 43063) | DRSC14255 | – | 59970 | 66960 |
| Rpn9 (GeneID 42802) | DRSC16840 | – | 46967 | 35757 |
| Nmdar1 (GeneID 40665) | DRSC12071 | – | 58987 | 56397 |
| Nmdar1 (GeneID 40665) | DRSC12356 | – | 64580 | 66780 |
| CG31468 (GeneID 251937) | DRSC13637 | – | 2.44e5 | 2.91e5 |
| CG18048 (GeneID 40782) | DRSC12573 | – | 72600 | 45323 |
| Pfdn4 (GeneID 38615) | DRSC09761 | – | 78573 | 94133 |
| Axs (GeneID 32645) | DRSC19333 | – | 3.21e5 | 3.19e5 |
| CG31650 (GeneID 326150) | DRSC03140 | – | 77153 | 77937 |
| CG30325 (GeneID 246541) | DRSC05685 | – | 1.60e5 | 1.33e5 |
| Rab8 (GeneID 40168) | DRSC11261 | – | 21747 | 20557 |
| Ir56a (GeneID 246471) | DRSC05776 | – | 1.34e5 | 1.41e5 |
| CG10317 (GeneID 41987) | DRSC14229 | – | 66570 | 62100 |
| Crys (GeneID 34604) | DRSC03294 | – | 1.16e5 | 82667 |
| spin (GeneID 45380) | DRSC07176 | – | 60557 | 72017 |
| CG34347 (GeneID 5740668) | DRSC14047 | – | 2.21e5 | 2.07e5 |
| CG34347 (GeneID 5740668) | DRSC14305 | – | 45700 | 50430 |
| CG34347 (GeneID 5740668) | DRSC15104 | – | 27090 | 39270 |
| CG34347 (GeneID 5740668) | DRSC15105 | – | 19023 | 20577 |

Look-ups from above:
Result for sicily (GeneID 32151) [DRSC19704] in “raw ATP luminescence, replicate 1”: 3.54e5
For “raw ATP luminescence, replicate 2”, Axs (GeneID 32645) [DRSC19333] shows 3.19e5
Under “raw ATP luminescence, replicate 1”, tutl (GeneID 46015) [DRSC00443] is entered as 27660
For “raw ATP luminescence, replicate 1”, CG34347 (GeneID 5740668) [DRSC15104] is entered as 27090
For “raw ATP luminescence, replicate 2”, Rab14 (GeneID 34840) [DRSC03403] has 68630

Further results:
| predicted target | amplicon | SD above plate mean | raw ATP luminescence, replicate 1 | raw ATP luminescence, replicate 2 |
| --- | --- | --- | --- | --- |
| glob1 (GeneID 41930) | DRSC16959 | – | 44763 | 65137 |
| CG3610 (GeneID 41795) | DRSC15502 | – | 61470 | 77000 |
| CG17261 (GeneID 33522) | DRSC00498 | – | 26270 | 27893 |
| RpS27 (GeneID 43039) | DRSC14244 | – | 37900 | 35050 |
| Idua (GeneID 34544) | DRSC02941 | – | 1.11e5 | 87467 |
| Gcat (GeneID 39333) | DRSC09719 | – | 64850 | 63930 |
| CG8564 (GeneID 38825) | DRSC10997 | – | 34323 | 34273 |
| Ced-12 (GeneID 34633) | DRSC02840 | – | 53560 | 72617 |
| Ube4A (GeneID 33932) | DRSC02004 | – | 94427 | 74227 |
| CG7707 (GeneID 39923) | DRSC10903 | – | 45753 | 31053 |
| CG7227 (GeneID 34088) | DRSC03032 | – | 1.25e5 | 75817 |
| CG4907 (GeneID 42686) | DRSC15673 | – | 59770 | 73110 |
| parvin (GeneID 32990) | DRSC19468 | – | 1.79e5 | 2.10e5 |
| CG5516 (GeneID 41940) | DRSC15826 | – | 1.00e5 | 75670 |
| CG33695 + cana | DRSC01163 | – | 2.46e5 | 1.97e5 |
| CG33695 + cana | DRSC03503 | – | 40373 | 75590 |
| CG3631 (GeneID 41797) | DRSC15503 | – | 62387 | 38957 |
| CG14326 (GeneID 42120) | DRSC14805 | – | 50230 | 43130 |
| CG8401 (GeneID 36770) | DRSC07165 | – | 53537 | 79030 |
| CG16800 (GeneID 34693) | DRSC02518 | – | 64773 | 73143 |
| CRMP (GeneID 40675) | DRSC12073 | – | 97637 | 52707 |
| CRMP (GeneID 40675) | DRSC12345 | – | 53907 | 22437 |
| CG15891 + CG15892 | DRSC18096 | – | 39120 | 46700 |
| Nazo (GeneID 40976) | DRSC14343 | – | 53633 | 56820 |
| dgo (GeneID 36139) | DRSC06134 | – | 81620 | 69373 |
| Fer2LCH (GeneID 44965) | DRSC16672 | – | 38660 | 36800 |
| Tango11 (GeneID 246596) | DRSC03890 | – | 52057 | 38897 |
| Tango11 (GeneID 246596) | DRSC03892 | – | 66220 | 52673 |
| Hex-t1 (GeneID 117364) | DRSC16701 | – | 44800 | 51120 |
| thr (GeneID 37042) | DRSC07706 | – | 56360 | 69103 |
| CG14907 + Mettl4 | DRSC15026 | – | 77890 | 60610 |
| CG14907 + Mettl4 | DRSC15027 | – | 65570 | 52220 |
| CG31223 (GeneID 326127) | DRSC15115 | – | 38370 | 39317 |
| CG30334 (GeneID 246545) | DRSC05345 | – | 71977 | 93587 |
| TppII (GeneID 36444) | DRSC07565 | – | 71617 | 55593 |
| CG34276 (GeneID 41934) | DRSC15811 | – | 59060 | 72340 |
| Edg78E (GeneID 40354) | DRSC11863 | – | 56343 | 53900 |
| Socs36E (GeneID 35085) | DRSC02455 | – | 92700 | 71267 |
| Tdrd3 (GeneID 39612) | DRSC10016 | – | 80617 | 62697 |
| CG33109 (GeneID 326258) | DRSC16533 | – | 88620 | 83200 |
| CG2519 (GeneID 40666) | DRSC12312 | – | 56953 | 25180 |
| TkR99D (GeneID 43551) | DRSC16881 | – | 62400 | 65770 |
| dpr5 (GeneID 41381) | DRSC15766 | – | 61970 | 59060 |
| Or85c (GeneID 41008) | DRSC16766 | – | 61263 | 56733 |
| Pdfr (GeneID 31234) | DRSC18614 | – | 43830 | 45730 |
| CG40551 (retired record) (GeneID 5740872) | DRSC21229 | – | 1.91e5 | 2.64e5 |
| Helz (GeneID 39613) | DRSC11072 | – | 22620 | 21103 |
| Klp68D (GeneID 39332) | DRSC11206 | – | 53970 | 36690 |
| CG11037 (GeneID 40317) | DRSC11631 | – | 82590 | 77940 |
| Sam-S (GeneID 48552) | DRSC00758 | – | 96720 | 66883 |
| FER (GeneID 41118) | DRSC12735 | – | 70860 | 47237 |
| FER (GeneID 41118) | DRSC16673 | – | 62793 | 50163 |
| CG3638 (GeneID 31071) | DRSC18533 | – | 37760 | 28990 |
| mRpL19 (GeneID 41028) | DRSC16367 | – | 62283 | 66123 |
| INPP5E (GeneID 39404) | DRSC09723 | – | 56243 | 59783 |
| tRNA:Leu-CAA-2-3 (GeneID 3772601) | DRSC13633 | – | 2.18e5 | 2.00e5 |
| CG17344 (GeneID 35185) | DRSC02607 | – | 51353 | 51007 |
| CG32243 (GeneID 317935) | DRSC08105 | – | 88720 | 95320 |
| spel1 (GeneID 34842) | DRSC03617 | – | 70247 | 74010 |
| CG5815 (GeneID 43266) | DRSC14135 | – | 65600 | 48070 |
| RabGGTa (GeneID 40617) | DRSC12189 | – | 43297 | 41627 |
| Gr32a (GeneID 34545) | DRSC02400 | – | 50817 | 80920 |
| Nop60B (GeneID 37873) | DRSC04627 | – | 69743 | 67833 |
| nmdyn-D6 (GeneID 32396) | DRSC20355 | – | 3.37e5 | 3.47e5 |
